{"source": "PubChem BioAssay AID686938 (Drosophila RNAi Screening Center, 2013)", "assay": "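Looking for CRAC channel components and the factors controlling them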 (primary screen)", "cell system": "Drosophila S2R+ cells", "knock-down reagent": "long dsRNA against Drosophila genes, about 0.25 µg dsRNA per well, roughly 10,000 cells", "timing": "5 days of knock-down before the calcium assay", "conditions": "thapsigargin (SERCA pump blocker) to empty calcium stores; entry signal taken 4 min after adding it", "detection": "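Duplicate raw fluo-4 intensities per well from a plate reader, at rest and four minutes after thapsigargin emptied calcium stores; entry-to-rest ratio filled for only some wells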", "scale": "calcium entry signal: higher = stronger calcium signal after store depletion; resting calcium signal: higher = higher resting calcium signal", "active means": "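Called when the plate z-score of the entry-to-rest ratio, mean of duplicates, falls below −3; wells with low overall dye signal (Fmax z below −2) or more than five off-targets excluded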", "calls": "active = strongly reduced calcium entry; inactive = no strong reduction", "note": "In all, the deposit lists about 23,000 reagents; below is a random part of those with a known target gene and a result. Over the whole deposit, 75 (0.33%) are marked active. 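Raw plate signals without normalisation; calls rest on plate z-scores that were not deposited; ratio present for only 364 wells.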 Names joined by + are all predicted targets of the reagent. The record does not give: the dose of the treatment."}
{"Gene": "CR10991", "PubChem SID": "SID104191948", "calcium entry signal, replicate 1 (fluorescence units)": 4.50e7, "calcium entry signal, replicate 2 (fluorescence units)": 3.76e7, "resting calcium signal, replicate 1 (fluorescence units)": 2.31e7, "resting calcium signal, replicate 2 (fluorescence units)": 1.81e7, "Call": "inactive"}
{"Gene": "mRpL52", "PubChem SID": "SID104186377", "calcium entry signal, replicate 1 (fluorescence units)": 5.74e7, "calcium entry signal, replicate 2 (fluorescence units)": 4.75e7, "resting calcium signal, replicate 1 (fluorescence units)": 2.42e7, "resting calcium signal, replicate 2 (fluorescence units)": 2.01e7, "Call": "inactive"}
{"Gene": "wash", "PubChem SID": "SID104186094", "calcium entry signal, replicate 1 (fluorescence units)": 2.65e7, "calcium entry signal, replicate 2 (fluorescence units)": 2.67e7, "resting calcium signal, replicate 1 (fluorescence units)": 1.39e7, "resting calcium signal, replicate 2 (fluorescence units)": 1.20e7, "Call": "inactive"}
{"Gene": "Uhg2 + snoRNA:Me18S-G1620 + snoRNA:U14:30Ea", "PubChem SID": "SID104180892", "calcium entry signal, replicate 1 (fluorescence units)": 4.22e7, "calcium entry signal, replicate 2 (fluorescence units)": 4.19e7, "resting calcium signal, replicate 1 (fluorescence units)": 2.02e7, "resting calcium signal, replicate 2 (fluorescence units)": 1.93e7, "Call": "inactive"}
{"Gene": "Fkbp14", "PubChem SID": "SID104184407", "calcium entry signal, replicate 1 (fluorescence units)": 4.16e7, "resting calcium signal, replicate 1 (fluorescence units)": 2.08e7, "Call": "inactive"}
{"Gene": "CG10559", "PubChem SID": "SID104194047", "calcium entry signal, replicate 1 (fluorescence units)": 2.37e7, "calcium entry signal, replicate 2 (fluorescence units)": 6.18e7, "resting calcium signal, replicate 1 (fluorescence units)": 1.44e7, "resting calcium signal, replicate 2 (fluorescence units)": 2.91e7, "Call": "inactive"}
{"Gene": "Mabi", "PubChem SID": "SID104182281", "calcium entry signal, replicate 1 (fluorescence units)": 4.67e7, "calcium entry signal, replicate 2 (fluorescence units)": 2.16e7, "resting calcium signal, replicate 1 (fluorescence units)": 1.97e7, "resting calcium signal, replicate 2 (fluorescence units)": 1.12e7, "Call": "inactive"}
{"Gene": "pdgy", "PubChem SID": "SID104198856", "calcium entry signal, replicate 1 (fluorescence units)": 3.87e7, "calcium entry signal, replicate 2 (fluorescence units)": 4.07e7, "resting calcium signal, replicate 1 (fluorescence units)": 1.88e7, "resting calcium signal, replicate 2 (fluorescence units)": 1.89e7, "Call": "inactive"}
{"Gene": "pdgy", "PubChem SID": "SID104199133", "calcium entry signal, replicate 1 (fluorescence units)": 3.21e7, "calcium entry signal, replicate 2 (fluorescence units)": 4.31e7, "resting calcium signal, replicate 1 (fluorescence units)": 1.64e7, "resting calcium signal, replicate 2 (fluorescence units)": 1.89e7, "Call": "inactive"}

Ordered by “calcium entry signal, replicate 1 (fluorescence units)” (descending): 2 of the entries above.
{"Gene": "mRpL52", "PubChem SID": "SID104186377", "calcium entry signal, replicate 1 (fluorescence units)": 5.74e7, "calcium entry signal, replicate 2 (fluorescence units)": 4.75e7, "resting calcium signal, replicate 1 (fluorescence units)": 2.42e7, "resting calcium signal, replicate 2 (fluorescence units)": 2.01e7, "Call": "inactive"}
{"Gene": "CR10991", "PubChem SID": "SID104191948", "calcium entry signal, replicate 1 (fluorescence units)": 4.50e7, "calcium entry signal, replicate 2 (fluorescence units)": 3.76e7, "resting calcium signal, replicate 1 (fluorescence units)": 2.31e7, "resting calcium signal, replicate 2 (fluorescence units)": 1.81e7, "Call": "inactive"}

Further results follow.
{"Gene": "Mco1", "PubChem SID": "SID104182512", "calcium entry signal, replicate 1 (fluorescence units)": 3.11e7, "calcium entry signal, replicate 2 (fluorescence units)": 4.42e7, "resting calcium signal, replicate 1 (fluorescence units)": 1.57e7, "resting calcium signal, replicate 2 (fluorescence units)": 1.98e7, "Call": "inactive"}
{"Gene": "CG10183", "PubChem SID": "SID104193995", "calcium entry signal, replicate 1 (fluorescence units)": 3.46e7, "calcium entry signal, replicate 2 (fluorescence units)": 4.97e7, "resting calcium signal, replicate 1 (fluorescence units)": 1.63e7, "resting calcium signal, replicate 2 (fluorescence units)": 1.86e7, "Call": "inactive"}
{"Gene": "CG5013", "PubChem SID": "SID104195487", "calcium entry signal, replicate 1 (fluorescence units)": 3.40e7, "calcium entry signal, replicate 2 (fluorescence units)": 5.05e7, "resting calcium signal, replicate 1 (fluorescence units)": 1.66e7, "resting calcium signal, replicate 2 (fluorescence units)": 6.79e7, "Call": "inactive"}
{"Gene": "CG6912", "PubChem SID": "SID104195924", "calcium entry signal, replicate 1 (fluorescence units)": 3.59e7, "calcium entry signal, replicate 2 (fluorescence units)": 4.82e7, "resting calcium signal, replicate 1 (fluorescence units)": 1.61e7, "resting calcium signal, replicate 2 (fluorescence units)": 7.37e7, "Call": "inactive"}
{"Gene": "CG13829", "PubChem SID": "SID104194471", "calcium entry signal, replicate 1 (fluorescence units)": 4.04e7, "calcium entry signal, replicate 2 (fluorescence units)": 7.52e7, "resting calcium signal, replicate 1 (fluorescence units)": 1.95e7, "resting calcium signal, replicate 2 (fluorescence units)": 2.99e7, "Call": "inactive"}
{"Gene": "Gss1 + Gss2", "PubChem SID": "SID104199800", "calcium entry signal, replicate 1 (fluorescence units)": 2.83e7, "calcium entry signal, replicate 2 (fluorescence units)": 3.31e7, "resting calcium signal, replicate 1 (fluorescence units)": 1.52e7, "resting calcium signal, replicate 2 (fluorescence units)": 1.51e7, "Call": "inactive"}
{"Gene": "Gss1 + Gss2", "PubChem SID": "SID104201256", "calcium entry signal, replicate 1 (fluorescence units)": 3.40e7, "calcium entry signal, replicate 2 (fluorescence units)": 3.66e7, "resting calcium signal, replicate 1 (fluorescence units)": 1.99e7, "resting calcium signal, replicate 2 (fluorescence units)": 1.73e7, "Call": "inactive"}
{"Gene": "CG14569", "PubChem SID": "SID104191522", "calcium entry signal, replicate 1 (fluorescence units)": 2.73e7, "calcium entry signal, replicate 2 (fluorescence units)": 4.42e7, "resting calcium signal, replicate 1 (fluorescence units)": 1.30e7, "resting calcium signal, replicate 2 (fluorescence units)": 1.85e7, "Call": "inactive"}
{"Gene": "pk", "PubChem SID": "SID104185970", "calcium entry signal, replicate 1 (fluorescence units)": 3.25e7, "calcium entry signal, replicate 2 (fluorescence units)": 3.69e7, "resting calcium signal, replicate 1 (fluorescence units)": 1.62e7, "resting calcium signal, replicate 2 (fluorescence units)": 1.72e7, "Call": "inactive"}
{"Gene": "pk", "PubChem SID": "SID104187456", "calcium entry signal, replicate 1 (fluorescence units)": 5.58e7, "calcium entry signal, replicate 2 (fluorescence units)": 4.09e7, "resting calcium signal, replicate 1 (fluorescence units)": 2.32e7, "resting calcium signal, replicate 2 (fluorescence units)": 1.74e7, "Call": "inactive"}
{"Gene": "pk", "PubChem SID": "SID104201704", "calcium entry signal, replicate 1 (fluorescence units)": 3.01e7, "calcium entry signal, replicate 2 (fluorescence units)": 4.81e7, "resting calcium signal, replicate 1 (fluorescence units)": 1.53e7, "resting calcium signal, replicate 2 (fluorescence units)": 2.53e7, "Call": "inactive"}
{"Gene": "CG42505 + CG42504 + CG31358", "PubChem SID": "SID104195027", "calcium entry signal, replicate 1 (fluorescence units)": 2.77e7, "calcium entry signal, replicate 2 (fluorescence units)": 4.08e7, "resting calcium signal, replicate 1 (fluorescence units)": 1.31e7, "resting calcium signal, replicate 2 (fluorescence units)": 1.74e7, "Call": "inactive"}
{"Gene": "CG42505 + CG42504 + CG31358", "PubChem SID": "SID104195100", "calcium entry signal, replicate 1 (fluorescence units)": 3.55e7, "calcium entry signal, replicate 2 (fluorescence units)": 1.84e7, "resting calcium signal, replicate 1 (fluorescence units)": 1.67e7, "resting calcium signal, replicate 2 (fluorescence units)": 9.84e6, "Call": "inactive"}
{"Gene": "CG42505 + CG42504 + CG31358", "PubChem SID": "SID104195101", "calcium entry signal, replicate 1 (fluorescence units)": 3.29e7, "calcium entry signal, replicate 2 (fluorescence units)": 2.66e7, "resting calcium signal, replicate 1 (fluorescence units)": 1.59e7, "resting calcium signal, replicate 2 (fluorescence units)": 1.41e7, "Call": "inactive"}
